{"source": "patent US12721822B2", "about": "“Anti-aging composition with mTOR inhibitor for humans and other mammals” (priority 2021, dated 2026)", "origin": "cited, not measured here", "tested_on": "20-month-old mice", "conditions": "20-month-old mice fed small doses for three months, then taken off the drug", "note": "At least one structure is not confirmed: it was looked up by name or label, or the drawing left a doubt.", "data": [{"smiles": "CO[C@H]1C[C@@H]2CC[C@@H](C)[C@@](O)(O2)C(=O)C(=O)N2CCCC[C@H]2C(=O)O[C@H]([C@H](C)C[C@@H]2CC[C@@H](O)[C@H](OC)C2)CC(=O)[C@H](C)/C=C(\\C)[C@@H](O)[C@@H](OC)C(=O)[C@H](C)C[C@H](C)/C=C/C=C/C=C/1C", "note": "[rapamycin, Rapamycin]", "values": [{"measurement": "age at death of the final survivor", "result": "3 years and 8 months"}, {"measurement": "extra lifespan on average versus usual age at death (around 30 months)", "result": 2, "unit": "months"}]}]}
